Measured values from paper PMC7819943, “Rice protein-binding microarrays: a tool to detect cis-acting elements near promoter regions in rice”.
The list shows a part of the results.

target: T1, OsSMF1 (Oryza sativa, UniProt Q6ZLB0 1-436); assay: protein-binding microarray (RPBM); PBS, 2% BSA, 51.3 ng/ul salmon testes DNA, 50 uM zinc acetate, 200 nM TF, 25 C, 1 h; high values mean tight binding; settings: protein: recombinant; tags: N-terminal polyhistidine and DsRed monomer fusion (pET32a); chain copies: 2; label: CyDye5-dUTP incorporated in the synthesized complementary strand; 3' TTTTT single-stranded linker to array surface; dsDNA, one strand shown
T1 sequence: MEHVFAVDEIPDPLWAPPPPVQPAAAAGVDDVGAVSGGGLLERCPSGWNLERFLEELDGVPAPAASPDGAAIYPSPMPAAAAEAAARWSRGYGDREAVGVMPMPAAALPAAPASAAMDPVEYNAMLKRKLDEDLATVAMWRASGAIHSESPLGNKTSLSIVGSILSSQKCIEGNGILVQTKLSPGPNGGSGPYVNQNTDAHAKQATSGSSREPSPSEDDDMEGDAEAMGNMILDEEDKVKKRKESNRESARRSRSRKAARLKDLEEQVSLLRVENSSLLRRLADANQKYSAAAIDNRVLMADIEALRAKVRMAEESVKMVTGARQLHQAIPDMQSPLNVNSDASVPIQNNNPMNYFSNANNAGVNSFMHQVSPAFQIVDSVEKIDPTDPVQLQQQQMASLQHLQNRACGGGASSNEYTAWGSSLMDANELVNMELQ
How it was run: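 Binding signal is defined as the fluorescence intensity of each feature in arbitrary units, read on an Axon 4000B scanner. Transcription factors with N-terminal polyhistidine and DsRed fusions came from E. coli BL21-CodonPlus and were purified on Ni–NTA. They were incubated at 200 nM for 1 h at 25 °C on a custom Agilent array that had been made double-stranded with Cy5-dUTP, with 50 µM zinc acetate present, and the array was washed.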

| Sequence | binding signal |
| --- | --- |
| CGCTCCCATCGGCGCACGCGTCCACCCCGGCCGCTCTCCTCGGAGTCACCTAGTGCAG | 3450 fluorescence intensity (a.u.) |
| TCTCTCTCCCTCTTCTGGTTTGGTTTGTTGCTGGCCCTAGCGGAGTCACCTAGTGCAG | 27200 fluorescence intensity (a.u.) |
| CGCGCTCGCCCGTCGTCGCTCCGCTGCCACATGGGCCCGCCGGAGTCACCTAGTGCAG | 4050 fluorescence intensity (a.u.) |
| TGGTGCACCGATAGTCCGATCTTGATGACACATGTGCACGCGGAGTCACCTAGTGCAG | 4860 fluorescence intensity (a.u.) |
| GTCGTTGTCGTTGGATGTATCGCCACGCATTGACGCATCCCGGAGTCACCTAGTGCAG | 5430 fluorescence intensity (a.u.) |
| TCTCAGCCACATGGGCCACGGCAGGTGGGGCCCACCCGCACGGAGTCACCTAGTGCAG | 3260 fluorescence intensity (a.u.) |
| GTTGAGGAACCTTCGGTGAACTTATTCCCAAGGAAAAGCACGGAGTCACCTAGTGCAG | 23200 fluorescence intensity (a.u.) |
| CCTGATCGTACGGCTGATCTGGCACAGCATTACAAACTTGCGGAGTCACCTAGTGCAG | 3980 fluorescence intensity (a.u.) |
| CCCATCCACCCACACGTGTCACCCCTCTCCCCGCCTATATCGGAGTCACCTAGTGCAG | 13900 fluorescence intensity (a.u.) |
| TGCCCTCTGCATGTCACGTCGGATATACGGACACACATTTCGGAGTCACCTAGTGCAG | 3210 fluorescence intensity (a.u.) |
| CATTTGTGGCAGCAACCTATATATATTTTCAGTTTCTGACCGGAGTCACCTAGTGCAG | 29600 fluorescence intensity (a.u.) |
| GCTCCGACGTGTAACTGTCACCGGGCCCAATAATTCGTGGCGGAGTCACCTAGTGCAG | 5230 fluorescence intensity (a.u.) |
| GTGAGTTCGTGACTTGTTGCCTGGTGGCCCTGGTCACAGTCGGAGTCACCTAGTGCAG | 4010 fluorescence intensity (a.u.) |
| CCAGTCCACCACATACTACAGTGTCAGCGTACGCGTCGTACGGAGTCACCTAGTGCAG | 4590 fluorescence intensity (a.u.) |
| GAGGAAGCCGAACGGTTTTGCTACCCACACGACACGGAGGCGGAGTCACCTAGTGCAG | 3720 fluorescence intensity (a.u.) |
| ATGTCTAATGCCATGTAAGTTTTGGAGGAAACCTAACCTGCGGAGTCACCTAGTGCAG | 3660 fluorescence intensity (a.u.) |
| CACGCGCCTTTAGCTCGCCACCAGCGTGGCACGCGGGAGCCGGAGTCACCTAGTGCAG | 5220 fluorescence intensity (a.u.) |
| CGTCCACATTTAATACTCTATGTATGTGTCCAAACATTTGCGGAGTCACCTAGTGCAG | 5120 fluorescence intensity (a.u.) |
| CGTGACGCGCAGCTCCCTGCAGCCGACCTGGCCACCCACACGGAGTCACCTAGTGCAG | 3500 fluorescence intensity (a.u.) |
| ACAGTCTAAAATGATACATATTTGTGACTCGAGGGAGTATCGGAGTCACCTAGTGCAG | 4110 fluorescence intensity (a.u.) |
| ATGGTAATTGAATTCTGCCATGATACAAACAGAAAGAAACCGGAGTCACCTAGTGCAG | 4760 fluorescence intensity (a.u.) |

| Sequence | binding signal |
| --- | --- |
| ACCCCATCCACCGTACACGTGTCCACATCTACGGCCCAGACGGAGTCACCTAGTGCAG | 17200 fluorescence intensity (a.u.) |
| GCCGCACGAATCGTAAAGGCTTTCTCTGCTCCTCTTGCTCCGGAGTCACCTAGTGCAG | 31000 fluorescence intensity (a.u.) |
| GCTCCTCCGCTCCTTGCGCCATCTCGCGGCTGAACAGGGGCGGAGTCACCTAGTGCAG | 3400 fluorescence intensity (a.u.) |
| AAATGTAGCGTCAAGTAACACGTGTATTCACATTTACGATCGGAGTCACCTAGTGCAG | 7750 fluorescence intensity (a.u.) |
| TGCTATGGGCCAACTTACACATCTTCACACATTGCTTGGTCGGAGTCACCTAGTGCAG | 4380 fluorescence intensity (a.u.) |
| GTAAACTTCCATCATCAAACCAGCACACGTACATATTAGGCGGAGTCACCTAGTGCAG | 3420 fluorescence intensity (a.u.) |
| GCGAACCCTCGATGAGCTGACACCCTCCTCATCCTCGCCGCGGAGTCACCTAGTGCAG | 3560 fluorescence intensity (a.u.) |
| GTTGCGGGGTGGGTGGTGGCGTTGCGGGAGGAGGAGGGAGCGGAGTCACCTAGTGCAG | 6560 fluorescence intensity (a.u.) |
| CTGTCATCGCCACTGTCATGCCATCATCGTCATTGTGCCTCGGAGTCACCTAGTGCAG | 6280 fluorescence intensity (a.u.) |
| ATTCCTGGACGTGACAATATGAAACAGATCATGATTCATGCGGAGTCACCTAGTGCAG | 3510 fluorescence intensity (a.u.) |
| GAGAAATGAACGTCCGAGATTCGTCCACGTCACTATGAGTCGGAGTCACCTAGTGCAG | 26300 fluorescence intensity (a.u.) |
| GCAGTACCCCGTGTCGTCACCGCCGGCGGCGCCGACGCCACGGAGTCACCTAGTGCAG | 4190 fluorescence intensity (a.u.) |
| TGCTGCGTAGGATTTGGTGTTCTCGCACTGGTTAGTTGCTCGGAGTCACCTAGTGCAG | 4040 fluorescence intensity (a.u.) |
| CGTACGCCTCCTAGCTAGTTCGAGCATCCCACGTCGAGTCCGGAGTCACCTAGTGCAG | 3300 fluorescence intensity (a.u.) |
| GTGTCGCGATCTGCGATGGTCGTCTCGTCCGCGACACCCCCGGAGTCACCTAGTGCAG | 5860 fluorescence intensity (a.u.) |
| TTTGGTTTCCGGCCAAACATTGCCACGCCTAACTTAAGGCCGGAGTCACCTAGTGCAG | 5170 fluorescence intensity (a.u.) |
| GCGTCTTGTGTGACTCCTACCTGTCGCTGATCATGGTGATCGGAGTCACCTAGTGCAG | 3470 fluorescence intensity (a.u.) |
| TGGGGCCGGGCCGTGCCGACGTGTGAGCACAAGTAGTGTTCGGAGTCACCTAGTGCAG | 5210 fluorescence intensity (a.u.) |
| ATACTCACAAGACACGGTTTCTCTTGCCGCGTCTGCAGCACGGAGTCACCTAGTGCAG | 3550 fluorescence intensity (a.u.) |
| TACGGACCAAGCTGACTCACCCCTAAACAAGTCTACCCCACGGAGTCACCTAGTGCAG | 10200 fluorescence intensity (a.u.) |
| TTTACGTACACGTGTATATGTCATACTACCTCTATTTCAGCGGAGTCACCTAGTGCAG | 13100 fluorescence intensity (a.u.) |

A second format for some results above:
Sequence,binding signal
GCTCCTCCGCTCCTTGCGCCATCTCGCGGCTGAACAGGGGCGGAGTCACCTAGTGCAG,3400 fluorescence intensity (a.u.)
AAATGTAGCGTCAAGTAACACGTGTATTCACATTTACGATCGGAGTCACCTAGTGCAG,7750 fluorescence intensity (a.u.)
TGCTATGGGCCAACTTACACATCTTCACACATTGCTTGGTCGGAGTCACCTAGTGCAG,4380 fluorescence intensity (a.u.)
